Results are given in words; binding and its absence hold for the method and conditions named. Binding seen in cells or lysates may run through a third protein. Binding calls can cover weak binding; strength is not graded here. Sequences can lack the tags named with a protein.
Molecular target: T1, GST-SAP18 (UniProt O00422)
T1 sequence: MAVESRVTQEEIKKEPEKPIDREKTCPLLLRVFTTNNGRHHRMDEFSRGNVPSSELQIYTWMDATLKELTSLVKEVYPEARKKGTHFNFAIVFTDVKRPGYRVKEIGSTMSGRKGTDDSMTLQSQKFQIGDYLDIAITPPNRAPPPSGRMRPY
Test: pull-down; GST-INI1, GST-SAP18, GST-LEDGF or GST-Gemin2 as bait, His6-IN(WT) or His6-IN(W235E) as prey; bound protein quantified as fraction bound after normalising to the loading control

His6-IN(WT) (HIV-1) (enzyme)
binding: binds
